# Measurements reported in PubChem BioAssay AID1671190 (National Center for Advancing Translational Sciences (NCATS), 2021).
# Protein sequences, listed by entry. Tags and fused reporters are not part of them. Lines headed by an entry give the natural chain unless they say otherwise; changes in a name come on top.
# UniProt P18054: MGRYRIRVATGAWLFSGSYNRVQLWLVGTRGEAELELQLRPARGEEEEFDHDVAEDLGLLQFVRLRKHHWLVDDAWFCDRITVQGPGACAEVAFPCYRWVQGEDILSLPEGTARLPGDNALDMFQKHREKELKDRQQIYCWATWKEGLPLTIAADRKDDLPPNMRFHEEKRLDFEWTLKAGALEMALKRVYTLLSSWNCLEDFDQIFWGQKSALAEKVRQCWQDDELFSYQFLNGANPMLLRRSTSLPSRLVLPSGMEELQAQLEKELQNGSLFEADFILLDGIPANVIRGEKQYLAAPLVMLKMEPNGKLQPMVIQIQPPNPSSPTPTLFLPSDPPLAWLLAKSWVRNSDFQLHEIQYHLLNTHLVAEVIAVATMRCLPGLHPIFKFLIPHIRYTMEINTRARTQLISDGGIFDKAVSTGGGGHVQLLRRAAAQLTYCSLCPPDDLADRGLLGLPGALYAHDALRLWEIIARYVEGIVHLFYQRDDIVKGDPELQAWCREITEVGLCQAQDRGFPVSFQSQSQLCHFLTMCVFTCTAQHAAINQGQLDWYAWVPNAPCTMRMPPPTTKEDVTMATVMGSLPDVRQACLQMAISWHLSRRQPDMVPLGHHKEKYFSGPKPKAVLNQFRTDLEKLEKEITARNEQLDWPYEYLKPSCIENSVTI
# The whole screen tested about 580,000 compounds, of which about 6,100 (1.1%) were called active. Entries that show only a call come without a potency. Inconclusive results, whose numbers are uncertain, are shown with a selection of clear calls. Calls follow the shape of the dose curve; as a rule, active = well fitted inhibition curve with a large enough effect; inconclusive = small, poorly fitted or top-dose-only effect, or another doubt; inactive = no such curve, though single readings can be large or run the other way. A potency beside an inconclusive call is a rough fit, not a confirmed value.
# Target: Polyunsaturated fatty acid lipoxygenase ALOX12 (Homo sapiens) (UniProt P18054)
# Assay: Primary qHTS assay for inhibitors of human arachidonate 12S-lipoxygenase (ALOX12): Round 2
# Settings: purified 12hLO, xylenol orange hydroperoxide absorbance; activity change, negative = inhibition: at 108 µM (top of the series)
# Summary of the method: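 Purified human 12hLO (150 nM final) in 25 mM Hepes, 0.01% Triton X-100, pH 7.0 was preincubated 15 min at room temperature with compound. Then 40 uM arachidonic acid was added, 30 min. Hydroperoxide was read by Fe-XO absorbance ratio 573/405 nm.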
# Potency is read from the fitted curve at half-maximal effect.
SMILES,Potency,"activity change, negative = inhibition"
CCOC(=O)CC(SP1(=S)OCC2(CCCCC2)CO1)C(=O)OCC (centres undefined),inactive,–
Cc1nc(-c2cccs2)cc([C@H]2CN3CC[C@H]2C[C@@H]3COC(=O)Nc2cccc(C(F)(F)F)c2)n1,"inconclusive: 56.2 µM [inhibitor, partial curve]",–
CN(C)c1ccc(/C=C2\CCCN=C2c2cccnc2)cc1,"inconclusive: 31.6 µM [inhibitor, partial curve, poor fit]",–
C[N+]12CCC(CC1)C(=C(c1ccccc1)c1ccccc1)C2,active: 35.5 µM,–
CCOC(=O)C1(CCc2ccccc2)CCN(C2CCSCC2)CC1,inactive,–
COc1ccccc1CNCCc1ccccc1,"inconclusive: 2.51 µM [inhibitor, full curve, poor fit]",–
C/C(=C/C=C/[C@@H](C)C(=O)O)[C@H]1CN[C@H](C(=O)O)[C@H]1CC(=O)O,"inconclusive: 28.2 µM [inhibitor, single point]",–
CN1/C(=C\C=Nc2ccccc2)C(C)(C)c2ccccc21,"inconclusive: 50.1 µM [inhibitor, partial curve, poor fit]",–
COC[C@H]1CCCN1C[C@H]1CN2CC[C@H]1C[C@@H]2CNC(=O)Nc1ccsc1,inactive,–
CC1=NN(c2ccccc2)C(=O)C1/C=C1\C(=O)NC(=O)N(c2ccc(C)c(C)c2)C1=O (centres undefined),inactive,–
COc1ccc(NC(=O)OC[C@H]2C[C@@H]3CCN2C[C@@H]3c2cc(-c3ccc(N(C)C)cc3)nc(C)n2)cc1,"inconclusive: 79.4 µM [inhibitor, partial curve]",–
CCN(C(=O)COC(=O)c1cc(C)n(C2CC2)c1C)c1ccccc1,inactive,–
CCOc1ccc(CN2C(=O)c3ccccc3Sc3ccc(C(=O)N4CCC5(CC4)OCCO5)cc32)cc1,inactive,–
Cc1c(C(c2ccc(O)cc2)c2c(O)c3ccccc3oc2=O)c(=O)n(-c2ccccc2)n1C (centres undefined),–,inconclusive: -32.1% [inhibitor]
Cc1ccc(-n2c(/C=C/c3cccc(C(F)(F)F)c3)nc3ccccc3c2=O)cc1,inactive,–
CN1CCN(c2ncnc3nc[nH]c23)CC1,inactive,–
CCOc1ccc(C(=O)N2CCC3(CC2)NCc2ccccc2-n2ccnc23)cc1,inactive,–
Cc1ccc(N2C(=O)CC(=O)NC2=O)cc1,"inconclusive: 50.1 µM [inhibitor, partial curve, poor fit]",–
CC(=O)O[C@@]12CO[C@@H]1C[C@H](O)[C@@]1(C)C(=O)[C@H](O)C3=C(C)[C@@H](OC(=O)[C@H](O)[C@@H](NC(=O)c4ccccc4)c4ccccc4)C[C@@](O)([C@@H](OC(=O)c4ccccc4)C12)C3(C)C (some centres undefined),inactive,–

# Not a retest: two of the compounds above.
SMILES,Potency,"activity change, negative = inhibition"
CCN(C(=O)COC(=O)c1cc(C)n(C2CC2)c1C)c1ccccc1,inactive,–
CCOc1ccc(CN2C(=O)c3ccccc3Sc3ccc(C(=O)N4CCC5(CC4)OCCO5)cc32)cc1,inactive,–
